Assay results as given in patent US20120129791A1, “STIMULATOR OF GENITAL, SEXUAL AND REPRODUCTIVE FUNCTION” (<<BIO PEPTID>> COMPANY LIMITED, priority 2009, published 2012).
At least one peptide structure holds a part that was inferred or is arguable (an end, a ring closure or a residue). Where no end group is shown, it is not given here.

Legend:
[1] = tested on: women with a pronounced decrease and absence of libido; assay: Quantified SFW scale, Group IV women with decreased or absent libido; type: in vivo, human
[2] = tested on: Men with impairment of sexual function; assay: Quantified SFM scale of sexual function, men with impairment of sexual function; type: in vivo, human; settings: for Duration of sexual intercourse: patients with onset of effect, n (%) / Erection: patients with onset of effect, n (%) / Frequency of sexual performances: patients with onset of effect, n (%) / Mood after sex act: patients with onset of effect, n (%) / Mood before sexual intercourse: patients with onset of effect, n (%) / Sexual spirit: patients with onset of effect, n (%) / Need for sexual relations: patients with onset of effect, n (%): men (n=8)
[3] = Group IV (n=8), before 8 (100%)
[4] = Group IV (n=8), before treatment 2.8

Substance: TKPRPGP [Thr-Lys-Pro-Arg-Pro-Gly-Pro]
- Attitude toward sexual activity score 3 (indifference toward the sex act): patients after treatment, n (%) [1, 3]: 4 (50%)
- Level of sexual activity score 3 (monthly): patients after treatment, n (%) [1, 3]: 4 (50%)
- Onset of orgasm, after treatment ([1]; Group IV (n=8), before treatment 2.5): 4.0 points
- Lubrication, after treatment [1, 4]: 4.0 points
- Mood after sexual acts, after treatment [1, 4]: 4.5 points
- Level of sexual activity, after treatment ([1]; Group IV (n=8), before treatment 3.0): 4.5 points
- Attitude toward sexual activity, after treatment ([1]; Group IV (n=8), before treatment 3.5): 4.0 points
- Attitude toward sexual activity: patients with onset of effect, n (%) ([1]; Group IV (n=8), day 1): 0 (0%)
- General physical state after sexual acts: patients with onset of effect, n (%) ([1]; Group IV (n=8), day 1): 0 (0%)
- Level of sexual activity: patients with onset of effect, n (%) ([1]; Group IV (n=8), day 1): 0 (0%)
- Lubrication: patients with onset of effect, n (%) ([1]; Group IV (n=8), day 1): 0 (0%)
- Mood after sexual acts: patients with onset of effect, n (%) ([1]; Group IV (n=8), day 1): 0 (0%)
- Onset of orgasm: patients with onset of effect, n (%) ([1]; Group IV (n=8), day 1): 0 (0%)
- Libido: patients with onset of effect, n (%) ([1]; Group IV (n=8), day 1 of drug administration): 0 (0%)
- Attitude toward sexual activity: patients with onset of effect, n (%) ([1]; Group IV (n=8), day 5): 0 (0%)
- General physical state after sexual acts: patients with onset of effect, n (%) ([1]; Group IV (n=8), day 5): 0 (0%)
- Level of sexual activity: patients with onset of effect, n (%) ([1]; Group IV (n=8), day 5): 0 (0%)
- Libido: patients with onset of effect, n (%) ([1]; Group IV (n=8), day 5): 0 (0%)
- Lubrication: patients with onset of effect, n (%) ([1]; Group IV (n=8), day 5): 4 (50%)
- Mood after sexual acts: patients with onset of effect, n (%) ([1]; Group IV (n=8), day 5): 0 (0%)
- Onset of orgasm: patients with onset of effect, n (%) ([1]; Group IV (n=8), day 5): 4 (50%)
- Attitude toward sexual activity: patients with onset of effect, n (%) ([1]; Group IV (n=8), day 10): 4 (50%)
- General physical state after sexual acts: patients with onset of effect, n (%) ([1]; Group IV (n=8), day 10): 4 (50%)
- Level of sexual activity: patients with onset of effect, n (%) ([1]; Group IV (n=8), day 10): 0 (0%)
- Libido: patients with onset of effect, n (%) ([1]; Group IV (n=8), day 10): 4 (50%)
- Lubrication: patients with onset of effect, n (%) ([1]; Group IV (n=8), day 10): 4 (50%)
- Mood after sexual acts: patients with onset of effect, n (%) ([1]; Group IV (n=8), day 10): 4 (50%)
- Onset of orgasm: patients with onset of effect, n (%) ([1]; Group IV (n=8), day 10): 4 (50%)
- Attitude toward sexual activity: patients with onset of effect, n (%) ([1]; Group IV (n=8), day 15): 4 (50%)
- General physical state after sexual acts: patients with onset of effect, n (%) ([1]; Group IV (n=8), day 15): 4 (50%)
- Level of sexual activity: patients with onset of effect, n (%) ([1]; Group IV (n=8), day 15): 0 (%)
- Libido: patients with onset of effect, n (%) ([1]; Group IV (n=8), day 15): 4 (50%)
- Lubrication: patients with onset of effect, n (%) ([1]; Group IV (n=8), day 15): 4 (50%)
- Mood after sexual acts: patients with onset of effect, n (%) ([1]; Group IV (n=8), day 15): 4 (50%)
- Onset of orgasm: patients with onset of effect, n (%) ([1]; Group IV (n=8), day 15): 6 (75%)
- General physical state after sexual acts (n = 33), after treatment ([1]; Group IV, before treatment 2.8): 4.5 points
- Reinforcement of the effect on the quantified SFM scale, all indicators ([2]; men): 1 score
- Duration of sexual intercourse: patients with onset of effect, n (%) ([2]; day 1): 4 (50%)
- Erection: patients with onset of effect, n (%) ([2]; day 1): 4 (50%)
- Frequency of sexual performances: patients with onset of effect, n (%) ([2]; day 1): 4 (50%)
- Mood after sex act: patients with onset of effect, n (%) ([2]; day 1): 4 (50%)
- Mood before sexual intercourse: patients with onset of effect, n (%) ([2]; day 1): 4 (50%)
- Sexual spirit: patients with onset of effect, n (%) ([2]; day 1): 4 (50%)
- Need for sexual relations: patients with onset of effect, n (%) ([2]; day 1 of drug administration): 8 (100%)
- Duration of sexual intercourse: patients with onset of effect, n (%) ([2]; day 5): 4 (50%)
- Erection: patients with onset of effect, n (%) ([2]; day 5): 8 (100%)
- Frequency of sexual performances: patients with onset of effect, n (%) ([2]; day 5): 4 (50%)
- Mood after sex act: patients with onset of effect, n (%) ([2]; day 5): 4 (50%)
- Mood before sexual intercourse: patients with onset of effect, n (%) ([2]; day 5): 4 (50%)
- Need for sexual relations: patients with onset of effect, n (%) ([2]; day 5): 8 (100%)
- Sexual spirit: patients with onset of effect, n (%) ([2]; day 5): 4 (50%)
- Duration of sexual intercourse: patients with onset of effect, n (%) ([2]; day 10): 8 (100%)
- Erection: patients with onset of effect, n (%) ([2]; day 10): 8 (100%)
- Frequency of sexual performances: patients with onset of effect, n (%) ([2]; day 10): 8 (100%)
- Mood after sex act: patients with onset of effect, n (%) ([2]; day 10): 8 (100%)
- Mood before sexual intercourse: patients with onset of effect, n (%) ([2]; day 10): 8 (100%)
- Need for sexual relations: patients with onset of effect, n (%) ([2]; day 10): 8 (100%)
- Sexual spirit: patients with onset of effect, n (%) ([2]; day 10): 8 (100%)
- Duration of sexual intercourse: patients with onset of effect, n (%) ([2]; day 15): 8 (100%)
- Erection: patients with onset of effect, n (%) ([2]; day 15): 8 (100%)
- Frequency of sexual performances: patients with onset of effect, n (%) ([2]; day 15): 8 (100%)
- Mood after sex act: patients with onset of effect, n (%) ([2]; day 15): 8 (100%)
- Mood before sexual intercourse: patients with onset of effect, n (%) ([2]; day 15): 8 (100%)
- Need for sexual relations: patients with onset of effect, n (%) ([2]; day 15): 8 (100%)
- Sexual spirit: patients with onset of effect, n (%) ([2]; day 15): 8 (100%)
- Mood after sexual intercourse score 3 (satisfaction and pleasant fatigue): men after treatment, n (%) ([2]; men (n=10), before 1 (10%)): 4 (40%)
- Tension of sex organ (erection) score 2 (force or local manipulation necessary): men after treatment, n (%) ([2]; men (n=10), before 1 (10%)): 3 (30%)
- Mood after sexual intercourse score 2 (indifference): men after treatment, n (%) ([2]; men (n=10), before 3 (30%)): 4 (40%)
- Sexual spirit score 2 (several times a month, but not more often than once a week): men after treatment, n (%) ([2]; men (n=10), before 3 (30%)): 6 (60%)
- Frequency of sexual performances score 2 (several times a month, but not more often than once a week): men after treatment, n (%) ([2]; men (n=10), before 5 (50%)): 5 (50%)
- Mood before sexual intercourse score 2 (some uncertainty, but I don't avoid the attempt): men after treatment, n (%) ([2]; men (n=10), before 5 (50%)): 1 (10%)
- Need for sexual relations score 2 (two to four times a month): men after treatment, n (%) ([2]; men (n=10), before 6 (6.0%)): 3 (30%)
- Duration of sexual intercourse score 2.5 (ejaculation approximately within 15-20 movements): men after treatment, n (%) ([2]; men (n=10), before: empty): 4 (40%)
- Duration of sexual intercourse score 3 (ejaculation within 1-2 minutes): men after treatment, n (%) ([2]; men (n=10), before: empty): 6 (60%)
- Frequency of sexual performances score 3 (twice or several times a week): men after treatment, n (%) ([2]; men (n=10), before: empty): 4 (40%)
- Frequency of sexual performances score 4 (once or several times every twenty-four hours): men after treatment, n (%) ([2]; men (n=10), before: empty): 1 (10%)
- Mood after sexual intercourse score 4 (complete satisfaction and spiritual uplift): men after treatment, n (%) ([2]; men (n=10), before: empty): 2 (20%)
- Mood before sexual intercourse (mainly, the desire for enjoyment, intercourse without apprehension; score not given): men after treatment, n (%) ([2]; men (n=10), before: empty): 9 (90%)
- Need for sexual relations score 3 (twice or several times a week): men after treatment, n (%) ([2]; men (n=10), before: empty): 6 (60%)
- Need for sexual relations score 4 (once or several times every twenty-four hours): men after treatment, n (%) ([2]; men (n=10), before: empty): 1 (10%)
- Sexual spirit score 3 (twice or several times a week): men after treatment, n (%) ([2]; men (n=10), before: empty): 4 (40%)
- Tension of sex organ (erection) score 3 (erection incomplete, but introduction is successful without a problem): men after treatment, n (%) ([2]; men (n=10), before: empty): 7 (70%)
- Need for sexual relations, after treatment ([2]; men, SFM scale, before treatment 1.6): 2.5 points
- Patients with presence of the effect ([2]; men, at the end of the course): all the patients
- Duration of sexual intercourse, after treatment ([2]; men, before treatment 0.75): 2.8 points
- Tension of sex organ (erection), after treatment ([2]; men, before treatment 1.1): 2.7 points
- Sexual spirit, after treatment ([2]; men, before treatment 1.3): 2.4 points
- Mood before sexual intercourse, after treatment ([2]; men, before treatment 1.4): 2.9 points
- Frequency of sexual performances, after treatment ([2]; men, before treatment 1.5): 2.5 points
- Mood after sex acts, after treatment ([2]; men, before treatment 1.5): 2.8 points
- Patients in whom the effect had begun ([2]; men, by the end of the first twenty-four hours): half the patients
